Measured values: PubChem BioAssay AID2685 (National Center for Advancing Translational Sciences (NCATS), 2010)
The list shows a part of the results. The main result of the screen is listed elsewhere. These columns were measured beside it and carry no call. Most of these compounds were active or inconclusive in the main read-out, so they are no random draw. Potencies come from curve fits of mixed quality, noted in brackets.

Assay: qHTS Assay for Lipid Storage Modulators in Drosophila S3 Cells;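 as to cell number change: cells counted by Cell Tracker Red CMTPX staining in the red channel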
Settings: BODIPY lipid droplet fluorescence, 18-24 h; for cell number change: measured here: cell count max response, cells fed with added oleic acid
In short: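 Laser-scanning cytometry quantifies lipid droplet accumulation (500–530 nm total intensity; droplet/cell object ratio) in oleic acid-fed (400 uM added) Drosophila S3 cells treated with a concentration series. 20 uM Triacsin C defined 100% inhibition.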

[1] = measured here: cell number channel AC50, cells fed with added oleic acid
[2] = measured here: lipid fluorescence (Fed channel) AC50, cells fed with added oleic acid

Compound | cell number change | AC50 [1] | AC50 [2]
COc1cccc(-c2nc(CS(=O)(=O)CC(=O)NCCCN3CCc4ccccc4C3)c(C)o2)c1 | -3.61% | – | –
COc1ccc(C(c2sc3nc(C)nn3c2O)N2CCC(O)CC2)cc1OC (centres undefined) | – | 0.116 µM [falling, full curve, poor fit] | –
CCOCCCNC(=S)N(Cc1ccccc1)Cc1nc2ccccc2c(=O)[nH]1 | – | – | 16.4 µM [falling, partial curve]
Cc1ccc(C(=O)N/C(=C\c2cn(C)c3ccccc23)C(=O)OCCN(C)C)cc1 | -9.84% | – | –
Cc1cc(Br)ccc1OCCCCNC(C)(C)C | 9.81% | – | –
O=C1C2C3C=CC(C3)C2C(=O)N1/N=C/c1cc(Br)cc([N+](=O)[O-])c1O (centres undefined) | – | 0.366 µM [rising, full curve, poor fit] | –
CC(C)(C)c1ccc(CN(Cc2ccccc2)C(c2ccccn2)c2nnnn2C(C)(C)C)cc1 (centres undefined) | 18.5% | – | 20.6 µM [rising, partial curve]
Cc1ccccc1C(=O)Nc1c(C(=O)N(CCN(C)C)Cc2ccco2)oc2ccccc12 | 17.6% | – | –
CN(C)C(=O)c1ccc(NC(=O)COC(=O)CC23CC4CC(CC(Br)(C4)C2)C3)cc1 | -116% | 25.9 µM [falling, partial curve] | –
Cc1ccc(OCCC(=O)OC(C)C(=O)NC2CC2)cc1 (centres undefined) | -7% | – | –
O=C(Cc1ccccc1[N+](=O)[O-])NC1CC2CCC1C2 (centres undefined) | -15.1% | – | –
CCC(C)c1ccc(NC(=O)c2ccco2)cc1 (centres undefined) | -31.9% | – | –
O=S(=O)(Nc1cc(Sc2ncn[nH]2)c(O)c2ccccc12)c1ccccc1 | -51.9% | 29.1 µM [falling, single point] | –
Nc1nc(SCC(=O)c2ccc(F)cc2)n[nH]1 | 16.8% | 5.17 µM [rising, single point] | 6.51 µM [rising, single point]
CC1(C(=O)O)C=CCN1C(=O)c1ccccc1 (centres undefined) | 14.4% | – | 0.103 µM [rising, full curve, poor fit]
COc1ccc(CC(NC(C)=O)C(=O)NC2CCN(S(=O)(=O)c3ccccc3)CC2)c(OC)c1 (centres undefined) | 23.5% | – | 6.51 µM [rising, single point]
CCOC(=O)c1c(C)[nH]c(C(=O)OCC(=O)N2CCc3ccccc32)c1C | 47.2% | 29.1 µM [rising, single point] | 0.092 µM [rising, full curve, poor fit]
CC(=O)C(=Cc1ccc(C(=O)O)cc1)C(C)=O | 33.6% | – | –
COc1ccc(N2CCN(C(=O)COC(=O)COc3ccc(C#N)cc3)CC2)cc1 | -8.46% | – | 23.1 µM [falling, partial curve]

Part of the list above in order of number of heavy atoms, smallest number first:
Compound | cell number change | AC50 [1] | AC50 [2]
CC(=O)C(=Cc1ccc(C(=O)O)cc1)C(C)=O | 33.6% | – | –
COc1ccc(C(c2sc3nc(C)nn3c2O)N2CCC(O)CC2)cc1OC (centres undefined) | – | 0.116 µM [falling, full curve, poor fit] | –
COc1ccc(N2CCN(C(=O)COC(=O)COc3ccc(C#N)cc3)CC2)cc1 | -8.46% | – | 23.1 µM [falling, partial curve]
